{"source": "PubChem BioAssay AID602196 (INSERM, 2012)", "assay": "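Genes whose knock-down alters cisplatin killing of lung cancer cells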", "cell system": "human A549 lung cancer cells", "reagents": "siRNA pair against human genes", "time to read-out": "48 h transfection before cisplatin; time from cisplatin to read-out not stated", "challenge": "cisplatin at a dose killing half of control-siRNA cells; exact dose and duration not given", "measurement": "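Cisplatin cell death as a shift from the 50% death seen with control siRNA; siRNAs toxic or growth-blocking alone scored 0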", "direction": "two-siRNA summed score (-2 to +2): higher = both siRNAs protect from cisplatin killing; -2 means both sensitise; mean protection from cisplatin (shift in death): higher = protection from cisplatin killing", "rule for the call": "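siRNAs harmful alone (LDH or WST-1) get 0; others get +1 for less and -1 for more cisplatin killing; genes are active when the two siRNAs give the same sign, summing to ±2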", "calls": "active = both siRNAs shift cisplatin killing the same way; inactive = no consistent shift, or siRNA harmful alone", "note": "Here is an unselected part of about 23,000 deposited reagents. Of all reagents, 455 (2%) are marked active. 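Active includes both protection and sensitisation; some change values fall well beyond the stated -50 to +50 range.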 Not all columns of the deposit are shown. Not given: the amount of reagent."}
{"Gene":"TUBA3D","two-siRNA summed score (-2 to +2)":0,"mean protection from cisplatin (shift in death) (%)":-0.8,"Outcome":"inactive"}
{"Gene":"LOC90379","two-siRNA summed score (-2 to +2)":0,"mean protection from cisplatin (shift in death) (%)":11,"Outcome":"inactive"}
{"Gene":"WFDC3","two-siRNA summed score (-2 to +2)":0,"mean protection from cisplatin (shift in death) (%)":3.1,"Outcome":"inactive"}
{"Gene":"LOC388076","two-siRNA summed score (-2 to +2)":0,"mean protection from cisplatin (shift in death) (%)":12.1,"Outcome":"inactive"}
{"Gene":"ELOVL1","two-siRNA summed score (-2 to +2)":0,"mean protection from cisplatin (shift in death) (%)":-8.5,"Outcome":"inactive"}
{"Gene":"TMEM39B","two-siRNA summed score (-2 to +2)":0,"mean protection from cisplatin (shift in death) (%)":3.8,"Outcome":"inactive"}
{"Gene":"METTL4","two-siRNA summed score (-2 to +2)":0,"mean protection from cisplatin (shift in death) (%)":-2,"Outcome":"inactive"}
{"Gene":"LOC442387","two-siRNA summed score (-2 to +2)":0,"mean protection from cisplatin (shift in death) (%)":4,"Outcome":"inactive"}
{"Gene":"S100A16","two-siRNA summed score (-2 to +2)":0,"mean protection from cisplatin (shift in death) (%)":1.8,"Outcome":"inactive"}
{"Gene":"PLGLA","two-siRNA summed score (-2 to +2)":0,"mean protection from cisplatin (shift in death) (%)":4.5,"Outcome":"inactive"}
{"Gene":"RTN1","two-siRNA summed score (-2 to +2)":1,"mean protection from cisplatin (shift in death) (%)":12.1,"Outcome":"inactive"}

3 consecutive records from above, quoted:
{"Gene":"LOC442387","two-siRNA summed score (-2 to +2)":0,"mean protection from cisplatin (shift in death) (%)":4,"Outcome":"inactive"}
{"Gene":"S100A16","two-siRNA summed score (-2 to +2)":0,"mean protection from cisplatin (shift in death) (%)":1.8,"Outcome":"inactive"}
{"Gene":"PLGLA","two-siRNA summed score (-2 to +2)":0,"mean protection from cisplatin (shift in death) (%)":4.5,"Outcome":"inactive"}

The list goes on:
{"Gene":"LOC107985476","two-siRNA summed score (-2 to +2)":0,"mean protection from cisplatin (shift in death) (%)":-9.4,"Outcome":"inactive"}
{"Gene":"SEC11B","two-siRNA summed score (-2 to +2)":0,"mean protection from cisplatin (shift in death) (%)":9.1,"Outcome":"inactive"}
{"Gene":"APBA1","two-siRNA summed score (-2 to +2)":-1,"mean protection from cisplatin (shift in death) (%)":-7.1,"Outcome":"inactive"}
{"Gene":"MGC12760","two-siRNA summed score (-2 to +2)":0,"mean protection from cisplatin (shift in death) (%)":3.4,"Outcome":"inactive"}
{"Gene":"ZFYVE1","two-siRNA summed score (-2 to +2)":0,"mean protection from cisplatin (shift in death) (%)":12.9,"Outcome":"inactive"}
{"Gene":"MBNL2","two-siRNA summed score (-2 to +2)":0,"mean protection from cisplatin (shift in death) (%)":-0.6,"Outcome":"inactive"}
{"Gene":"ITPKA","two-siRNA summed score (-2 to +2)":0,"mean protection from cisplatin (shift in death) (%)":-4.2,"Outcome":"inactive"}
{"Gene":"GTF3C1","two-siRNA summed score (-2 to +2)":1,"mean protection from cisplatin (shift in death) (%)":21.5,"Outcome":"inactive"}
{"Gene":"DICER1-AS1","two-siRNA summed score (-2 to +2)":1,"mean protection from cisplatin (shift in death) (%)":8.7,"Outcome":"inactive"}
{"Gene":"SPATA6","two-siRNA summed score (-2 to +2)":0,"mean protection from cisplatin (shift in death) (%)":3.4,"Outcome":"inactive"}
{"Gene":"NIPA2","two-siRNA summed score (-2 to +2)":0,"mean protection from cisplatin (shift in death) (%)":-2.1,"Outcome":"inactive"}
{"Gene":"MIDEAS","two-siRNA summed score (-2 to +2)":0,"mean protection from cisplatin (shift in death) (%)":1.2,"Outcome":"inactive"}
{"Gene":"LOC440772","two-siRNA summed score (-2 to +2)":0,"mean protection from cisplatin (shift in death) (%)":1.5,"Outcome":"inactive"}
{"Gene":"NEB","two-siRNA summed score (-2 to +2)":0,"mean protection from cisplatin (shift in death) (%)":-1.8,"Outcome":"inactive"}
{"Gene":"BRWD1","two-siRNA summed score (-2 to +2)":0,"mean protection from cisplatin (shift in death) (%)":5.3,"Outcome":"inactive"}
{"Gene":"PRKAR1B","two-siRNA summed score (-2 to +2)":0,"mean protection from cisplatin (shift in death) (%)":-5.2,"Outcome":"inactive"}
{"Gene":"TPCN2","two-siRNA summed score (-2 to +2)":0,"mean protection from cisplatin (shift in death) (%)":1.6,"Outcome":"inactive"}
{"Gene":"HSD11B1L","two-siRNA summed score (-2 to +2)":0,"mean protection from cisplatin (shift in death) (%)":-10,"Outcome":"inactive"}
{"Gene":"SPP2","two-siRNA summed score (-2 to +2)":0,"mean protection from cisplatin (shift in death) (%)":6.4,"Outcome":"inactive"}
{"Gene":"TRAF6","two-siRNA summed score (-2 to +2)":0,"mean protection from cisplatin (shift in death) (%)":2.6,"Outcome":"inactive"}
